Measured values published in patent US20200254110A1 (priority 2017, published 2020).

Experiment: general procedure: peptide synthesis; pentafluorophenol ester
Conditions: conjugation step

DEG-SLIGRL
conjugation yield: 39%

Fam5/6-Lysine-DEG-SLIGRL
conjugation yield: 26.2%
